{"source": "patent US7910574B2", "about": "“Treatments for the control of schistosomiasis” (Illinois State University, priority 2007, dated 2011)", "origin": "cited, not measured here", "test_system": "S. mansoni infections in mice", "details": "mouse model, cited from earlier work", "note": "At least one structure is not confirmed: it was looked up by name or label, or the drawing left a doubt."}
{"smiles": "CO[C@H]1O[C@@H]2O[C@@]3(C)CC[C@H]4[C@H](C)CC[C@@H]([C@H]1C)[C@@]24OO3", "note": "[artemether]", "values": [{"measurement": "reduction in worm burden", "setting": "adult schistosome parasites", "result": "less than 50%"}, {"measurement": "reduction in worm burdens", "setting": "juvenile liver parasites targeted", "result": "~80", "unit": "%"}]}
